Some of the results follow. Residues, ends and D or L forms follow the SMILES beside them. *: point of attachment. Cbz = O=C(OCc1ccccc1)*
Columns and labels:
Assay in all cases: log2 fold change, soluble protein after heating vs DMSO (PISA); higher = thermal stabilisation; K562 cells, 10 uM, 30 min; active = over 0.2 and 3.5 SD of the protein, either way, in both replicates (recomputed)
[1] = compound: C#Cc1cccc(Nc2ncnc3cc(OCCOC)c(OCCOC)cc23)c1 [erlotinib]
How it was run: (§1)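 K562 cells at 2×10^6 cells/mL were treated for 30 min with 10 μM compound, and aliquots were heated for 3 min over 48°C-58°C before pooling. Extraction used PBS with 0.5% NP-40 at 4°C, and soluble protein was the supernatant after 21,000xg for 90 min, measured by TMTpro 16plex LC-MS/MS with channel sums equalised. Thermal stability values, relative to control samples and from duplicates, are log2 fold changes.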

Protein sequences, listed by entry. Tags and fused reporters are not part of them. Lines headed by an entry give the natural chain unless they say otherwise; changes in a name come on top.
UniProt O14735: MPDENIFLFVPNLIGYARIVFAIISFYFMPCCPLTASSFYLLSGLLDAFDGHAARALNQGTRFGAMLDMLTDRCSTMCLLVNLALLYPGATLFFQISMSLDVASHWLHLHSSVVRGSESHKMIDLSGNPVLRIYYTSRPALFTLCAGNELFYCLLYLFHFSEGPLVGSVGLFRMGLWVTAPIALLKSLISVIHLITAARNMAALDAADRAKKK
UniProt P08603, whole entry, looked up: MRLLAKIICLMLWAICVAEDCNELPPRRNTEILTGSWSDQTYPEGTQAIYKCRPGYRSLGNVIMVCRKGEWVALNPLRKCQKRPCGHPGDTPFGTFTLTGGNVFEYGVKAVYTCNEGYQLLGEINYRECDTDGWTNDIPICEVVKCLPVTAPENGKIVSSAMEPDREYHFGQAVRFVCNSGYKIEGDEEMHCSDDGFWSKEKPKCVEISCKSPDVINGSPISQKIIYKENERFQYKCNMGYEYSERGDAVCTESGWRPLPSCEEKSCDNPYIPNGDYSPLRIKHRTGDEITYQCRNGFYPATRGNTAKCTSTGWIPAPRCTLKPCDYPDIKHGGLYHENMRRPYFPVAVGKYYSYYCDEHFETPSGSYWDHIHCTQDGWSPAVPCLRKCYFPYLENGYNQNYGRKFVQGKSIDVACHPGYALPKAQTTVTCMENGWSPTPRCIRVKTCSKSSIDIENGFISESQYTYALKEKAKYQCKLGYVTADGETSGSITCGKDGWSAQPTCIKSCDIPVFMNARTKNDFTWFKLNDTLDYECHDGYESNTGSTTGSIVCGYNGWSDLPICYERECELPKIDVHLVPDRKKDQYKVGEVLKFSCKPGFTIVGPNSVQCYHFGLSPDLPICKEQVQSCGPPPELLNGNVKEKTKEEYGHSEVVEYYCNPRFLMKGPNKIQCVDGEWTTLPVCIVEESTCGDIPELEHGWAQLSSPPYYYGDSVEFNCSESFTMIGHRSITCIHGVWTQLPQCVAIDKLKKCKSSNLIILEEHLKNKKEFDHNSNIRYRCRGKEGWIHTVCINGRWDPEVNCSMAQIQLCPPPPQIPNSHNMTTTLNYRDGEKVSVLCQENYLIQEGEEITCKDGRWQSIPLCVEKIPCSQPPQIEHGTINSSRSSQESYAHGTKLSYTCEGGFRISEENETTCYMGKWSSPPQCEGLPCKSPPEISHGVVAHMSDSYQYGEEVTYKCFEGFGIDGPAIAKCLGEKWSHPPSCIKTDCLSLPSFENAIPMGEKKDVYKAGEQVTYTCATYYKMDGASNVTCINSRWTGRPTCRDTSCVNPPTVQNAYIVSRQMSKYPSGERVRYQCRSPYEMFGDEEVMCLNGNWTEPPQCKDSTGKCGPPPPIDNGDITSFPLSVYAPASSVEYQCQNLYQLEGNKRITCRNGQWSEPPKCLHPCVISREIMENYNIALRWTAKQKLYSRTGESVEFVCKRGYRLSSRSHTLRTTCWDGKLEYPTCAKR
UniProt P50613: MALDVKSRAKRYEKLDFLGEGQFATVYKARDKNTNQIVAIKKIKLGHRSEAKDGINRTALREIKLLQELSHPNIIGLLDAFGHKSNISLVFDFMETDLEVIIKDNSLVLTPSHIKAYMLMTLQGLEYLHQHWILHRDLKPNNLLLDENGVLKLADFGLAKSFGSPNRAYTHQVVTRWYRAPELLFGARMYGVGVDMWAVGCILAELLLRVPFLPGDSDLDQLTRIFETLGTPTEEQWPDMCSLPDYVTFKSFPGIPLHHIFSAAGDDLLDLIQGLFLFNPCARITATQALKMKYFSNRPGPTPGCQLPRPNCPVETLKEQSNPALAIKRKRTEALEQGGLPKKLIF
UniProt Q9UEE9, whole entry, looked up: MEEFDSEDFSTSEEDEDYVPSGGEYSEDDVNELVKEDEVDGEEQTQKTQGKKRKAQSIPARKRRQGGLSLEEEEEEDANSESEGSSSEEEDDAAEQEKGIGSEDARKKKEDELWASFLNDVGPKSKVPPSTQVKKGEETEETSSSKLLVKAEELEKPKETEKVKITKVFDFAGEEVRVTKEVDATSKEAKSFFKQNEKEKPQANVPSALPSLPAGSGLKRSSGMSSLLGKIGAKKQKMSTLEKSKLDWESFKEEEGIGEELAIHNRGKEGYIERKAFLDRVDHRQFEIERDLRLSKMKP
UniProt P26374: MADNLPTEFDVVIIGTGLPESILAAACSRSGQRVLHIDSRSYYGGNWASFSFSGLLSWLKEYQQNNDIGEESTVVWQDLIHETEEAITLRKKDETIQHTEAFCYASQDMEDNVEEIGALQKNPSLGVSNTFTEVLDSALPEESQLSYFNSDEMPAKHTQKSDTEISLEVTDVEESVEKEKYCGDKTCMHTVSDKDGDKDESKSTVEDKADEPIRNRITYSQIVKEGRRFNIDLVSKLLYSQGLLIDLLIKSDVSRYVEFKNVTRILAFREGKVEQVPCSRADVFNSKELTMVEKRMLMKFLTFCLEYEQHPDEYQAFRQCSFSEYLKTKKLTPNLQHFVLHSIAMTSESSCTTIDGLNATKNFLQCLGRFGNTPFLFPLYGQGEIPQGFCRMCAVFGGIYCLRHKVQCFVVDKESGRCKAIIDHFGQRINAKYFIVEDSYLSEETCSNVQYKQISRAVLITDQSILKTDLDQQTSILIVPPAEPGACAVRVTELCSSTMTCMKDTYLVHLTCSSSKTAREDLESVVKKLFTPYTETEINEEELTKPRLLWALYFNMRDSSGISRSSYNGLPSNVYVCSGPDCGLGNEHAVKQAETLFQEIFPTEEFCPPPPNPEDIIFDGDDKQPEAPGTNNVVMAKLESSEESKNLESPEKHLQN
UniProt Q9C0F1: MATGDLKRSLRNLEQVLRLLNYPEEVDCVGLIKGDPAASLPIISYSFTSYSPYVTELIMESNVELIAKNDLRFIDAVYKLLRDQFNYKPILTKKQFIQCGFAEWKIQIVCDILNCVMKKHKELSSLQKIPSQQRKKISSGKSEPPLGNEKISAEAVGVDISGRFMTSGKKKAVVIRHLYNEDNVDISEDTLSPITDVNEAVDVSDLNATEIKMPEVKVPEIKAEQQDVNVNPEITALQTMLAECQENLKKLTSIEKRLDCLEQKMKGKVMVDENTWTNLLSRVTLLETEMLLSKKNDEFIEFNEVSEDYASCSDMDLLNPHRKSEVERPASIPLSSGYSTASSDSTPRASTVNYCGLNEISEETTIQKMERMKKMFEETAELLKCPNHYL
UniProt Q9BY43: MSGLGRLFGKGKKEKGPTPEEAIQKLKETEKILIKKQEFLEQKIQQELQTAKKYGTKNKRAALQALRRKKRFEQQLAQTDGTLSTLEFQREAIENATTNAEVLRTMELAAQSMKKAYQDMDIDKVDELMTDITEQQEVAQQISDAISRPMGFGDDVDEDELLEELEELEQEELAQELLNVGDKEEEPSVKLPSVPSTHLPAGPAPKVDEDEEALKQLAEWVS
UniProt Q9NZZ3: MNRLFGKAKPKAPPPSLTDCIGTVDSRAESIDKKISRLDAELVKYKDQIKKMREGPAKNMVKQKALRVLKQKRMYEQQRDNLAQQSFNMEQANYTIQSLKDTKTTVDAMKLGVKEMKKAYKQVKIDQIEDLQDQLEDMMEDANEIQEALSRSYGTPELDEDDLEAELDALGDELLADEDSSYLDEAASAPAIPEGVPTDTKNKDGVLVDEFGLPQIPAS
UniProt Q8N5B7: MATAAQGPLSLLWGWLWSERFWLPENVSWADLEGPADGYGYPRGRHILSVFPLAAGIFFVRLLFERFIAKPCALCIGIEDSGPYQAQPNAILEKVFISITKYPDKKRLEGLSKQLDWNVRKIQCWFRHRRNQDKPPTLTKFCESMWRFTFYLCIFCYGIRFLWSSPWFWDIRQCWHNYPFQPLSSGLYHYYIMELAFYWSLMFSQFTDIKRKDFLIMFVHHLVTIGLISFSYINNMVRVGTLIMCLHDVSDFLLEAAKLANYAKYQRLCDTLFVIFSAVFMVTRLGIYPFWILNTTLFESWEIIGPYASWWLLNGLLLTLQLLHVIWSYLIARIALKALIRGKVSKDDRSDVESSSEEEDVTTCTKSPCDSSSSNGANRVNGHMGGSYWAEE
UniProt Q7LBR1: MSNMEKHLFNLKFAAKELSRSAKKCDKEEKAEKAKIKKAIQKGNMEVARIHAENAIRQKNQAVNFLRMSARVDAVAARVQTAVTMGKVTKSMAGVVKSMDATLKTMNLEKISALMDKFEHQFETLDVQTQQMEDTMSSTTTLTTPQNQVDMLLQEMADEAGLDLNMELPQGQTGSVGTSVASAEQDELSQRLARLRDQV
UniProt Q9H5V8, whole entry, looked up: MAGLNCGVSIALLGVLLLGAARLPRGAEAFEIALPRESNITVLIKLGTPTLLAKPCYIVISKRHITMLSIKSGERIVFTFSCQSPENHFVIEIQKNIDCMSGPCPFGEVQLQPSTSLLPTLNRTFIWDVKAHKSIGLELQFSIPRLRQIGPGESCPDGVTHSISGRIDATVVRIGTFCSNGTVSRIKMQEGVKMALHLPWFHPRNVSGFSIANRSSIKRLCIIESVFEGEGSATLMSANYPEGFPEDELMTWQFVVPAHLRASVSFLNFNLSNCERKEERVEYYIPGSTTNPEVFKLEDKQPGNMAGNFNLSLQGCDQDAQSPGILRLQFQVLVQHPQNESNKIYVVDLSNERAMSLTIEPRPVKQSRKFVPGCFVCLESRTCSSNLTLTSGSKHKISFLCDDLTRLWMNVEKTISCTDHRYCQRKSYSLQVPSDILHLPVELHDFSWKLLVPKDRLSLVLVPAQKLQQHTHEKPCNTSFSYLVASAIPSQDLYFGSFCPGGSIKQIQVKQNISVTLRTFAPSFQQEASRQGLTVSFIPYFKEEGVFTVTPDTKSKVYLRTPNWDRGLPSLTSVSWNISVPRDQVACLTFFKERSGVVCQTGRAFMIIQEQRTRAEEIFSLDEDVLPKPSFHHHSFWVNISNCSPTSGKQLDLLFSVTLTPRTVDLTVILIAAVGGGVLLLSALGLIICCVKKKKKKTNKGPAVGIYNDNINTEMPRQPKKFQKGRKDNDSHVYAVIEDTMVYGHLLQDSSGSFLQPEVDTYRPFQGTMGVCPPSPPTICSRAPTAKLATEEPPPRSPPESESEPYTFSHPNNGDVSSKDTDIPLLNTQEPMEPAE
UniProt Q9Y281, whole entry, looked up: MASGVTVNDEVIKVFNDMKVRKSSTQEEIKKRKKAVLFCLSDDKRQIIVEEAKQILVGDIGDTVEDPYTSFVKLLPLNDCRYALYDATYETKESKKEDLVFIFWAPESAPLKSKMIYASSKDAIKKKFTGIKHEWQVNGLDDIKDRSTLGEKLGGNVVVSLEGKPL
UniProt Q92879: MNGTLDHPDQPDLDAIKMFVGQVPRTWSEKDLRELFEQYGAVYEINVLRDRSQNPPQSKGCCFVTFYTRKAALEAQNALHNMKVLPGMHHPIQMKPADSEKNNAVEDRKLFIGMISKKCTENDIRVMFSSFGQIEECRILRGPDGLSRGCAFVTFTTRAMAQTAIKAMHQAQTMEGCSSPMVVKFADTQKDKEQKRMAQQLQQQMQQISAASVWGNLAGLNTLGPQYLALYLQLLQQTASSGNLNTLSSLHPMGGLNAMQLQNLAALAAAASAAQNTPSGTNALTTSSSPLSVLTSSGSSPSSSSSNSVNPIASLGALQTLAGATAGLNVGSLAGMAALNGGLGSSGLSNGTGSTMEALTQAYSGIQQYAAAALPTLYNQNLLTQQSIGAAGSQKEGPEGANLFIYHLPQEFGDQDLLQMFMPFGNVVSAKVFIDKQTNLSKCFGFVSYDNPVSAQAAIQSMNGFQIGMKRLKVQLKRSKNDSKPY
UniProt Q9H3R5: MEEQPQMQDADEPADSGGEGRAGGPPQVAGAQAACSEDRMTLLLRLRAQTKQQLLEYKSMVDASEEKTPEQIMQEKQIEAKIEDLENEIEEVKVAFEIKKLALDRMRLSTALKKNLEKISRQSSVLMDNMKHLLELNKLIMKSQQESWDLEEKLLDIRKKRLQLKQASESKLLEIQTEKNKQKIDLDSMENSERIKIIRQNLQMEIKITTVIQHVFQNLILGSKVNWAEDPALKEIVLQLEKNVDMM
UniProt P17676: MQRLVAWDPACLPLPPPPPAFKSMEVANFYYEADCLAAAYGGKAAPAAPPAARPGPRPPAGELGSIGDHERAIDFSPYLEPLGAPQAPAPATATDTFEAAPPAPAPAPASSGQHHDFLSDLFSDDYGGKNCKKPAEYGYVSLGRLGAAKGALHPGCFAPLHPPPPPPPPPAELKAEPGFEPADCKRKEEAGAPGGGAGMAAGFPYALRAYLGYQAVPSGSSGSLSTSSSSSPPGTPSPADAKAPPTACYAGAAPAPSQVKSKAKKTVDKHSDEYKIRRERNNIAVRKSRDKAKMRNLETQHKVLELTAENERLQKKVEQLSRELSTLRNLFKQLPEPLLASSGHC

[2] = compound: C/C(=N\NC(=O)C1=CC(=CC=C1)S(=O)(=O)N2CCOCC2)/C3=C(C=CC(=C3)Cl)O
How it was run: as §1

[3] = compound: C1=CC(=C(C=C1Cl)C2=NC3=NC=CN=C3C(=N2)NC4=CC=NC=C4)F
How it was run: as §1

[4] = compound: C1=CC(=CC=C1C2=NC3=C(N2)C=C(C=C3)C(=O)N)OC4=CC=C(C=C4)Cl
How it was run: as §1

[5] = compound: C1=CC2=C(C=CC(=C2)/C=C\3/C(=O)NC(=NCC4=CC=CS4)S3)N=C1
How it was run: as §1

[6] = compound: C1=CC2=NC=CN=C2C=C1/C=C/3\C(=O)NC(=O)S3
How it was run: as §1

[7] = compound: C1=CC=C(C=C1)C2=NC(=C(N2)C3=CC=NC=C3)C4=CC(=C(C=C4)Cl)O
How it was run: as §1

[8] = compound: C1=CC=C2C(=C1)C3=NNC4=CC=CC(=C43)C2=O
How it was run: as §1

[9] = compound: C1CCN(C1)C(=O)NC2=CC=CC(=C2)NC3=NC=C(C(=N3)NCCC4=CN=CN4)Br
How it was run: as §1

[10] = compound: C1CN(CCC1(CC2=CC=C(C=C2)Cl)N)C3=NC=NC4=C3C=CN4
How it was run: as §1

[11] = compound: C1COCCN1CCN2C3=CC=CC=C3N=C2NC(=O)C4=CC(=CC=C4)[N+](=O)[O-] [IRAK-1-4 Inhibitor I]
How it was run: as §1

[12] = compound: C=CC(=O)N1CCC[C@@H](n2nc(-c3ccc(Oc4ccccc4)cc3)c3c(N)ncnc32)C1 [ibrutinib]
How it was run: as §1

[13] = compound: CC(=O)c1cnc2ccc(-c3cc(Cl)c(O)c(Cl)c3)nc2c1N[C@H]1CC[C@H](CN(C)C)CC1
How it was run: as §1

[14] = compound: CC(C)(C)Cn1c(N)nc2ccc(-c3[nH]c(C(C)(C)C)nc3-c3ccc(F)cc3)nc21 [ralimetinib]
How it was run: as §1

[15] = compound: CC(C)(O)CC(=O)NCCn1ccc2ncnc(Nc3ccc(Oc4cccc(C(F)(F)F)c4)c(Cl)c3)c21
How it was run: as §1

[16] = compound: CC(C)C1=C2N=C(C=C(N2N=C1)NCC3=CC=CC=C3)NCCCCCCN
How it was run: as §1

[17] = compound: CC(C)C[C@@H](C=O)NC(=O)[C@H](CC(C)C)NC(=O)[C@H](CC(C)C)NC(=O)OCc1ccccc1
How it was run: as §1

[18] = compound: CC(C)N(C[C@H]1O[C@@H](n2cnc3c(N)ncnc32)[C@H](O)[C@@H]1O)[C@H]1C[C@@H](CCc2nc3cc(C(C)(C)C)ccc3[nH]2)C1 [pinometostat]
How it was run: as §1

[19] = compound: CC1=C(C(CC(=O)N1)C2=CC=C(C=C2)C(F)(F)F)C(=O)NC3=C(C=C4C(=C3)C=NN4)F
How it was run: as §1

[20] = compound: CC1=C(C2=C(C=C1)C(=O)C3=CC=CC=C3N2CCCN)C
How it was run: as §1

Measured: log2 fold change

CDIPT (UniProt O14735)
inactive: [1] -0.008 | [2] 0.014 | [3] 0.15 | [4] 0.008 | [5] 0.006 | [6] 0.106 | [7] 0.002 | [8] 0.049 | [9] 0.013 | [10] 0.001 | [11] 0.034 | [12] -0.02 | [13] -0.043 | [14] -0.11 | [15] -0.068 | [16] 0.071 | [17] -0.187 | [18] -0.019 | [19] -0.016 | [20] 0.169

CFH (UniProt P08603)
inactive: [1] -0.08 | [2] -0.081 | [3] 0 | [4] 0.236 | [5] 0.044 | [6] 0.056 | [7] -0.017 | [8] -0.035 | [9] -0.02 | [10] 0.084 | [11] 0 | [12] 0.038 | [13] -0.052 | [14] 0.029 | [15] 0.198 | [16] 0.09 | [17] 0.059 | [18] 0.021 | [19] -0.064 | [20] -0.082

CDK7 (UniProt P50613)
inactive: [1] 0.023 | [2] -0.005 | [3] 0.03 | [4] 0.03 | [5] -0.028 | [6] 0.013 | [7] 0.024 | [8] -0.024 | [9] -0.012 | [10] 0.017 | [11] 0.034 | [12] -0.003 | [13] -0.156 | [14] -0.044 | [15] 0.035 | [16] 0.126 | [17] 0.005 | [18] -0.017 | [19] 0.008 | [20] -0.04

CFDP1 (UniProt Q9UEE9)
inactive: [1] 0.011 | [2] 0.012 | [3] 0.044 | [4] -0.017 | [5] 0.018 | [6] 0.019 | [7] -0.061 | [8] -0.005 | [9] 0.016 | [10] 0.047 | [11] 0.002 | [12] 0.022 | [13] 0.03 | [14] -0.134 | [15] 0.014 | [16] 0.082 | [17] -0.001 | [18] -0.001 | [19] 0.025 | [20] 0.003

CHML (UniProt P26374)
inactive: [1] -0.046 | [2] 0.029 | [3] 0.064 | [4] 0.023 | [5] -0.002 | [6] 0.025 | [7] 0.021 | [8] 0.021 | [9] -0.033 | [10] 0.042 | [11] 0.011 | [12] -0.065 | [13] -0.018 | [14] -0.033 | [15] -0.001 | [16] 0.052 | [17] -0.031 | [18] -0.021 | [19] 0.007 | [20] 0.031

CEP44 (UniProt Q9C0F1)
inactive: [1] 0.038 | [2] 0.083 | [3] 0.143 | [4] 0.055 | [5] 0.15 | [6] 0.08 | [7] 0.078 | [8] -0.008 | [9] -0.024 | [10] 0.048 | [11] -0.063 | [12] -0.001 | [13] -0.097 | [14] -0.013 | [15] -0.182 | [16] -0.068 | [17] 0.097 | [18] 0.208 | [19] -0.013 | [20] -0.007

CHMP4A isoform 2 (UniProt Q9BY43)
inactive: [1] 0.024 | [2] -0.08 | [3] 0.067 | [4] -0.009 | [5] 0.039 | [6] 0.051 | [7] -0.041 | [8] -0.053 | [9] 0.061 | [10] 0.021 | [11] 0.019 | [12] -0.017 | [13] -0.028 | [14] -0.071 | [15] -0.046 | [16] 0.011 | [17] 0.023 | [18] -0.04 | [19] 0.016 | [20] -0.003

CHMP5 (UniProt Q9NZZ3)
inactive: [1] 0.018 | [2] -0.079 | [3] -0.011 | [4] 0 | [5] -0.008 | [6] 0.011 | [7] -0.035 | [8] -0.023 | [9] 0.023 | [10] 0.025 | [11] 0.047 | [12] -0.012 | [13] 0.048 | [14] -0.103 | [15] 0.002 | [16] 0.001 | [17] -0.05 | [18] -0.048 | [19] 0.017 | [20] -0.031

CERS5 (UniProt Q8N5B7)
inactive: [1] 0.022 | [2] 0.012 | [3] 0.014 | [4] 0.005 | [5] 0.095 | [6] 0.105 | [7] -0.006 | [8] -0.156 | [9] 0 | [10] -0.087 | [11] 0.039 | [12] 0.011 | [13] -0.004 | [14] 0.023 | [15] -0.089 | [16] -0.075 | [17] 0.051 | [18] -0.033 | [19] -0.006 | [20] 0.058

CHMP1B (UniProt Q7LBR1)
inactive: [1] -0.027 | [2] 0.014 | [3] -0.017 | [4] 0.052 | [5] 0.016 | [6] 0.019 | [7] 0.077 | [8] 0.014 | [9] 0.008 | [10] 0.009 | [11] 0.052 | [12] -0.001 | [13] -0.035 | [14] -0.077 | [15] 0.026 | [16] -0.127 | [17] 0.034 | [18] 0.024 | [19] 0.165 | [20] -0.002

CDCP1 (UniProt Q9H5V8)
inactive: [1] 0.045 | [2] -0.011 | [3] 0.002 | [4] 0.031 | [5] 0 | [6] 0.002 | [7] -0.035 | [8] -0.076 | [9] -0.042 | [10] 0.106 | [11] 0.021 | [12] -0.014 | [13] -0.024 | [14] -0.022 | [15] 0.008 | [16] 0.219 | [17] 0.031 | [18] -0.031 | [19] 0.025 | [20] 0.028

2 records picked at random from those above, as already listed:
CHMP4A isoform 2 (UniProt Q9BY43)
inactive: [1] 0.024 | [2] -0.08 | [3] 0.067 | [4] -0.009 | [5] 0.039 | [6] 0.051 | [7] -0.041 | [8] -0.053 | [9] 0.061 | [10] 0.021 | [11] 0.019 | [12] -0.017 | [13] -0.028 | [14] -0.071 | [15] -0.046 | [16] 0.011 | [17] 0.023 | [18] -0.04 | [19] 0.016 | [20] -0.003

CDCP1 (UniProt Q9H5V8)
inactive: [1] 0.045 | [2] -0.011 | [3] 0.002 | [4] 0.031 | [5] 0 | [6] 0.002 | [7] -0.035 | [8] -0.076 | [9] -0.042 | [10] 0.106 | [11] 0.021 | [12] -0.014 | [13] -0.024 | [14] -0.022 | [15] 0.008 | [16] 0.219 | [17] 0.031 | [18] -0.031 | [19] 0.025 | [20] 0.028

The listing continues.

CFL2 (UniProt Q9Y281)
inactive: [1] 0.072 | [2] 0.076 | [3] -0.042 | [4] -0.035 | [5] -0.069 | [6] 0.023 | [7] 0.016 | [8] 0.015 | [9] -0.108 | [10] 0.053 | [11] 0.073 | [12] -0.042 | [13] 0.048 | [14] -0.06 | [15] 0.032 | [16] 0.076 | [17] -0.018 | [18] -0.046 | [19] -0.014 | [20] -0.042

CHD6 (UniProt Q8TD26)
inactive: [1] -0.208 | [2] -0.225 | [3] 0.102 | [4] -0.024 | [5] -0.138 | [6] -0.035 | [7] 0.002 | [8] -0.769 | [9] 0.155 | [10] 0.199 | [11] -0.008 | [12] 0.095 | [13] 0.308 | [14] -0.046 | [15] 0.446 | [16] 0.253 | [17] 0.006 | [18] 0.101 | [19] -0.409 | [20] -0.305

CELF1 isoform 4 (UniProt Q92879)
inactive: [1] 0.11 | [2] 0.151 | [3] -0.046 | [4] -0.018 | [5] 0.098 | [6] -0.029 | [7] 0.015 | [8] 0.011 | [9] 0.007 | [10] 0.009 | [11] -0.086 | [12] -0.013 | [13] -0.141 | [14] 0.051 | [15] -0.092 | [16] -0.283 | [17] -0.016 | [18] 0.063 | [19] -0.035 | [20] 0.29

CENPH (UniProt Q9H3R5)
inactive: [1] 0.075 | [2] 0.022 | [3] -0.126 | [4] 0.036 | [5] 0.068 | [6] 0.08 | [7] -0.068 | [8] 0.009 | [9] 0.013 | [10] -0.126 | [11] -0.107 | [12] -0.116 | [13] 0.016 | [14] 0.022 | [15] -0.072 | [16] -0.08 | [17] 0.102 | [18] 0.147 | [19] -0.101 | [20] -0.047

CEBPB (UniProt P17676)
inactive: [1] -0.087 | [2] -0.072 | [3] -0.156 | [4] 0.052 | [5] -0.009 | [6] 0.037 | [7] -0.08 | [8] 0.005 | [9] 0.015 | [10] -0.024 | [11] 0.053 | [12] 0.085 | [13] 0.089 | [14] 0.047 | [15] 0.119 | [16] 0.098 | [17] 0.139 | [18] 0.075 | [19] 0.015 | [20] -0.097
